Data from the supplement of paper PMC10849652.
This is one part of the list.

Sequences of proteins named here, by UniProt entry; tags and fusion partners are left off. A change or cut given only in a name is not applied to a line headed by its entry.
UniProt Q12873: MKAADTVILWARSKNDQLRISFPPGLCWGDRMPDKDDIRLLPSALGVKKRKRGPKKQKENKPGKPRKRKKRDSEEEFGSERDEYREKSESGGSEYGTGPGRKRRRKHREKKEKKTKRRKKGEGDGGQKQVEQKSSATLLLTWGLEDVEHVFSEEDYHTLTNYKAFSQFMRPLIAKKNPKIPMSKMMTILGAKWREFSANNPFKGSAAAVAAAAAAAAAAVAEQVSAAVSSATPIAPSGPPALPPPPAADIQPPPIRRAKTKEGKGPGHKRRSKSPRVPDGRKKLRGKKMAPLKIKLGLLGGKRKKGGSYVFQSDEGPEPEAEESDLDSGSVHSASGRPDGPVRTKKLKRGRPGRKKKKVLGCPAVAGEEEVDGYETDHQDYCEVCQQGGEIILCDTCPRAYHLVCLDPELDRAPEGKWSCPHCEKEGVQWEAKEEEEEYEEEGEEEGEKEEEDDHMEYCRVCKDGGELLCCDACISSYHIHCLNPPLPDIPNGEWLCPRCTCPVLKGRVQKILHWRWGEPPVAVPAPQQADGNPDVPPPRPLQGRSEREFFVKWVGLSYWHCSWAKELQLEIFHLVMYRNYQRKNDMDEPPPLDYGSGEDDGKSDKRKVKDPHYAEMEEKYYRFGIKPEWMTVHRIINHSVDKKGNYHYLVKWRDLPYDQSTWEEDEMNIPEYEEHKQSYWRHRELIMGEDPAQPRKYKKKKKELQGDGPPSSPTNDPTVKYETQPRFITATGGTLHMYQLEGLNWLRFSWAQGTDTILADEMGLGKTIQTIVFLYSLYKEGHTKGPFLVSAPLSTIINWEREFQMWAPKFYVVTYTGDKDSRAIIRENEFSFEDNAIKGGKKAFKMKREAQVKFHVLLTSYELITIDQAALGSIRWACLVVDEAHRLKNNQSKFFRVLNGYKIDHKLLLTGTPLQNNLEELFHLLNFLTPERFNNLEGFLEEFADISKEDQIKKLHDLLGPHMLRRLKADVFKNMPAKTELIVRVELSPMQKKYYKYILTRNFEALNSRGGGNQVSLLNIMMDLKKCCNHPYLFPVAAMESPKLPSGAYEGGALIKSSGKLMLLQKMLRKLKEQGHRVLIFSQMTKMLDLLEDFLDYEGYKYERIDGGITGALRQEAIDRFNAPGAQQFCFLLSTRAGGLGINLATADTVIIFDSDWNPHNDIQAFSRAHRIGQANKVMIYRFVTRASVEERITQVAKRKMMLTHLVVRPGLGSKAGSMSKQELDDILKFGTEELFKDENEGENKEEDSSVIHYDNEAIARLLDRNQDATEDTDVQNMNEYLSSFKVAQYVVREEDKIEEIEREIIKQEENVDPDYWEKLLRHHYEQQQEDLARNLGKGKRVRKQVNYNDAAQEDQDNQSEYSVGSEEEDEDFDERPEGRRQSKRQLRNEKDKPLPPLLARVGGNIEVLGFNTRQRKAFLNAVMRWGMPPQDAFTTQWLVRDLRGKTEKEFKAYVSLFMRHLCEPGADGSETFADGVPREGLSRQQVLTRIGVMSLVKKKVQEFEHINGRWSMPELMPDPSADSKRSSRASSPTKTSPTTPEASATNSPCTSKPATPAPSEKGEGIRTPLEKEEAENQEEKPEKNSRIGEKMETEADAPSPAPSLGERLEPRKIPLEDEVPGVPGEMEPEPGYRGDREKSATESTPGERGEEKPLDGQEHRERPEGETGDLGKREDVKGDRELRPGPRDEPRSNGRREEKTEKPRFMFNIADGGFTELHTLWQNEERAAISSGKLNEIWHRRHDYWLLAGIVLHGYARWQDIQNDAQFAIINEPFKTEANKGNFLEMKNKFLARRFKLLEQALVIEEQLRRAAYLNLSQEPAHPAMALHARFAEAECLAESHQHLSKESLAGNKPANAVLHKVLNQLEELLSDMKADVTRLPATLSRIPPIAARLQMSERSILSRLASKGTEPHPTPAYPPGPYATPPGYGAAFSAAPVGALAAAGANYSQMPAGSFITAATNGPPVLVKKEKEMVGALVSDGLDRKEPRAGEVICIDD
UniProt Q9Y6A4: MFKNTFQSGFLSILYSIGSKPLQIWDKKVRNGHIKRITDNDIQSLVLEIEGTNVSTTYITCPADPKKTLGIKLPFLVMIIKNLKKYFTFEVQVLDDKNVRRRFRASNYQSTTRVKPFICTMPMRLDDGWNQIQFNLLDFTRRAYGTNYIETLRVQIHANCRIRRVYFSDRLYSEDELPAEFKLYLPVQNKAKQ
UniProt Q9NZZ3: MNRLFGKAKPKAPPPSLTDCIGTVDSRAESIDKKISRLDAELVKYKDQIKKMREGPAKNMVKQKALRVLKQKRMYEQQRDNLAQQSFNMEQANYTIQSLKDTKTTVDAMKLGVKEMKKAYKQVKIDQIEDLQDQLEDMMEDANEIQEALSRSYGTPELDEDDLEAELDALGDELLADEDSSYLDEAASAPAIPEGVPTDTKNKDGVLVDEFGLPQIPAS
UniProt P50613: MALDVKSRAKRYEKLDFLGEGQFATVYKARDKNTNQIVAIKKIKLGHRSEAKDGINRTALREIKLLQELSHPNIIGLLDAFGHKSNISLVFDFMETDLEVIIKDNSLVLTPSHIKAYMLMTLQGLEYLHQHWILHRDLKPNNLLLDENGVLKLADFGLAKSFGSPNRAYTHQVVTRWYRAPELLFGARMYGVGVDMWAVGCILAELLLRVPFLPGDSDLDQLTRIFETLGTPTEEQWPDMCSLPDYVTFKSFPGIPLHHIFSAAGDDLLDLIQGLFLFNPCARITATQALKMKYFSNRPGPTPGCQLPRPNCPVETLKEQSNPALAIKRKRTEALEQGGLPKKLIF
UniProt P46527, whole entry, looked up: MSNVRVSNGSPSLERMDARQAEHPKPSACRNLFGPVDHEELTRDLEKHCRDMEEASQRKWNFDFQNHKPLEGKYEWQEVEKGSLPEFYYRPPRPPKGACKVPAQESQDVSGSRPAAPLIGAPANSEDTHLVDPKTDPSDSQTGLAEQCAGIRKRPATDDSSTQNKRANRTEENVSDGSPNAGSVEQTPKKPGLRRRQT
UniProt Q9UFW8: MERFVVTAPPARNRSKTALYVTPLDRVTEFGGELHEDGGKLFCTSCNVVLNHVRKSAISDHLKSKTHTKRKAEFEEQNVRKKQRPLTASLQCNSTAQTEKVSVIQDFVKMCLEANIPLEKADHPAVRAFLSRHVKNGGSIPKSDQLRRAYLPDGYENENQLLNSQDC
UniProt Q96FF9: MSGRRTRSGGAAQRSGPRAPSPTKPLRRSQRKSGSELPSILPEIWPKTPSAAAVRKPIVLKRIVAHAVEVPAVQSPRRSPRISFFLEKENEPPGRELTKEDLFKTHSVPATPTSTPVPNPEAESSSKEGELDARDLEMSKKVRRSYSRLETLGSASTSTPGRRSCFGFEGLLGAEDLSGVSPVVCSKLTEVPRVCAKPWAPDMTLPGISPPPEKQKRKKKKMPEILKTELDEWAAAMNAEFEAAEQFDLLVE
UniProt Q9Y259: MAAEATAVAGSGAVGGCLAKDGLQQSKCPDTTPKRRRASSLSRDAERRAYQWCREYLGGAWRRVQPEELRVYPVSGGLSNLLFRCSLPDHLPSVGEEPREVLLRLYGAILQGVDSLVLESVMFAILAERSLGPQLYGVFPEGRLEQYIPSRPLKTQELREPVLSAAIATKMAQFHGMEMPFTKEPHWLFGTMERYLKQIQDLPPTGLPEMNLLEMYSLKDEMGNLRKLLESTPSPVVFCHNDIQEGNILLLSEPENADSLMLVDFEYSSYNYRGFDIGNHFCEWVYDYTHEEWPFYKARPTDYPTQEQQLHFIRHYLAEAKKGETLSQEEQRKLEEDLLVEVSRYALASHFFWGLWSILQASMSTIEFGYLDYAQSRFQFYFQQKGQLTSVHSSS
UniProt Q8TAP6: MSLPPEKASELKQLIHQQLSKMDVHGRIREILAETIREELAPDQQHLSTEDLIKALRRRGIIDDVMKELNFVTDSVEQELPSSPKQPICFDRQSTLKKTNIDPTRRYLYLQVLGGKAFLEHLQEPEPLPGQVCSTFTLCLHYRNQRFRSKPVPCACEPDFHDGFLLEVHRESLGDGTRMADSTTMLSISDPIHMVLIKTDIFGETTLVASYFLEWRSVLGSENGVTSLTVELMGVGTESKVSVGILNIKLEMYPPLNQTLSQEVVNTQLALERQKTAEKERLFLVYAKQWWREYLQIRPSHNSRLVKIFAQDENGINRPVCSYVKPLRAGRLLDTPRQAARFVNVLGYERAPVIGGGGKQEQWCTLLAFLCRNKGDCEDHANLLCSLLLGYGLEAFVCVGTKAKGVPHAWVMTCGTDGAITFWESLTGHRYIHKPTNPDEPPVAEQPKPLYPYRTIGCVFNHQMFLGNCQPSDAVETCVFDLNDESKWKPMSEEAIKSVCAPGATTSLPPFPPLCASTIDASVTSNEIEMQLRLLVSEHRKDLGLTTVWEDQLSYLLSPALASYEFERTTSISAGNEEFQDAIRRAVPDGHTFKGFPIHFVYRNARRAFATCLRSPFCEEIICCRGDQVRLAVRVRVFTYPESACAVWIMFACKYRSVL
UniProt Q9Y5P4: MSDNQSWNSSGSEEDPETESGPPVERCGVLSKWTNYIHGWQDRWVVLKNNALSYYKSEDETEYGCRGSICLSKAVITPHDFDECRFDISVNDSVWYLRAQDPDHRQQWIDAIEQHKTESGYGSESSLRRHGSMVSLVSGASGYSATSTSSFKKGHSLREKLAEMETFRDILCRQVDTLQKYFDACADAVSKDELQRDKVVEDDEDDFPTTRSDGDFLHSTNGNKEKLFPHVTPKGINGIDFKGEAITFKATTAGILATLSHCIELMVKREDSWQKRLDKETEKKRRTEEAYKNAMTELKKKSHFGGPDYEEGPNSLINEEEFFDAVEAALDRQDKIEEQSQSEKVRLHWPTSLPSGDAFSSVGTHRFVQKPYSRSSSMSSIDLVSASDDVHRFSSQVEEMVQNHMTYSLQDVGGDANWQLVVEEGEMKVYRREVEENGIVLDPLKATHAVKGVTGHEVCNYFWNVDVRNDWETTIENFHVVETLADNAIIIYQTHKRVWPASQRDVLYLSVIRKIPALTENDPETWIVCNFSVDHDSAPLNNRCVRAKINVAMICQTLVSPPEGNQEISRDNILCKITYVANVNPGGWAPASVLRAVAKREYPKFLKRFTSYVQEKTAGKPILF
UniProt Q9BRQ6: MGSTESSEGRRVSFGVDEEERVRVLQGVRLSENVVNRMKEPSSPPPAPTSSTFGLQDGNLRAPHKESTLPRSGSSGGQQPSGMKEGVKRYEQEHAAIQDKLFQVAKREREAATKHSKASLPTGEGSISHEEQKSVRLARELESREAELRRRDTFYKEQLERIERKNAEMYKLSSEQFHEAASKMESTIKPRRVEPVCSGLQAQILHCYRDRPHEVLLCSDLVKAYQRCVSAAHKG
UniProt O96017, whole entry, looked up: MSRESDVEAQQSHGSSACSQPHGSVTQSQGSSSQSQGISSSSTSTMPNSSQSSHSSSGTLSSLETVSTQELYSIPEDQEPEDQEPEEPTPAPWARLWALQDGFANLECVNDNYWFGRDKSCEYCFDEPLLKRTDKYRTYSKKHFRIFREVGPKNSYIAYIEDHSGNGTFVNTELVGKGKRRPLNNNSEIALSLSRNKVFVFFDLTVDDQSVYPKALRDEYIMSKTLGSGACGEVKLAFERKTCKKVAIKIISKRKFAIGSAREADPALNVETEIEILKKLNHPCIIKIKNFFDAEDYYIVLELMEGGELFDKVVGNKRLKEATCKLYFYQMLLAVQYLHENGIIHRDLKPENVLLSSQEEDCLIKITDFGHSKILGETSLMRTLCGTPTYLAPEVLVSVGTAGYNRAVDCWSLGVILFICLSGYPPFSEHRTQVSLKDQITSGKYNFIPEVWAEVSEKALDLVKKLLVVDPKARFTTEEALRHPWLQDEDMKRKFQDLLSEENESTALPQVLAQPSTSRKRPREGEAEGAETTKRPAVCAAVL
UniProt Q7LBR1: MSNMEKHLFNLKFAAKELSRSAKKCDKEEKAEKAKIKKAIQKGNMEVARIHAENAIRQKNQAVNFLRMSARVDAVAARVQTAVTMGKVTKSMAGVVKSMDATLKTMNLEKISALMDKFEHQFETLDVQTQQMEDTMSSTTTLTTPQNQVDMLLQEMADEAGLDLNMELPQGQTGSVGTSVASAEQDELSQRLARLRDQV
UniProt Q96JB5: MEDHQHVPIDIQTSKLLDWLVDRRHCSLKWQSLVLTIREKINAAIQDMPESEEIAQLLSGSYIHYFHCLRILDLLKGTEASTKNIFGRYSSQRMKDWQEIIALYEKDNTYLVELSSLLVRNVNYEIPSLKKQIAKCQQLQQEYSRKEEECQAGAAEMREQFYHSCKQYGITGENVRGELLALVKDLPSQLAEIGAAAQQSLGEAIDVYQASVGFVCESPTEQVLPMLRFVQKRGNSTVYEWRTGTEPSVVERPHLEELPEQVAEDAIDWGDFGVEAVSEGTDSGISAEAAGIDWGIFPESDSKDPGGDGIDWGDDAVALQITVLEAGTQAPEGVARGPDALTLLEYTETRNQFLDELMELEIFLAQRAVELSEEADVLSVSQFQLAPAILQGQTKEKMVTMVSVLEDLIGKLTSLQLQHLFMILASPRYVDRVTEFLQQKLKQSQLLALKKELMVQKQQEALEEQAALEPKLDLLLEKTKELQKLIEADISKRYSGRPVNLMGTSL

Columns and labels:
Test in all cases: log2 fold change, soluble protein after heating vs DMSO (PISA); higher = thermal stabilisation; K562 cells, 10 uM, 30 min; active = over 0.2 and 3.5 SD of the protein, either way, in both replicates (recomputed)
[1] = compound: COC1=CC=C(C=C1)CN2C=CC3=C2C=C(C=C3)C(=O)NO
Outline: (§1)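 K562 cells (2×10^6 cells/mL) were treated with 10 μM compound for 30 min, and aliquots were heated for 3 min over 48°C-58°C. Pooled aliquots were extracted in PBS with 0.5% NP-40 at 4°C, and the supernatant after 21,000xg for 90 min was measured by TMTpro 16plex LC-MS/MS with channel sums equalised. Reported thermal stability, relative to control samples and from duplicates, is a log2 fold change.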

filanesib = compound: CON(C)C(=O)N1N=C(c2cc(F)ccc2F)S[C@@]1(CCCN)c1ccccc1 [filanesib]
Outline: as §1

zotarolimus = compound: CO[C@H]1C[C@@H]2CC[C@@H](C)[C@@](O)(O2)C(=O)C(=O)N2CCCC[C@H]2C(=O)O[C@H]([C@H](C)C[C@@H]2CC[C@H](n3cnnn3)[C@H](OC)C2)CC(=O)[C@H](C)/C=C(\C)[C@@H](O)[C@@H](OC)C(=O)[C@H](C)C[C@H](C)/C=C/C=C/C=C/1C [zotarolimus]
Outline: as §1

idasanutlin = compound: COc1cc(C(=O)O)ccc1NC(=O)[C@@H]1N[C@@H](CC(C)(C)C)[C@](C#N)(c2ccc(Cl)cc2F)[C@H]1c1cccc(Cl)c1F [idasanutlin]
Outline: as §1

alisertib = compound: COc1cc(Nc2ncc3c(n2)-c2ccc(Cl)cc2C(c2c(F)cccc2OC)=NC3)ccc1C(=O)O [alisertib]
Outline: as §1

[2] = compound: COc1cc2nc(-c3cc(F)ccc3O)nc(N[C@@H]3CNC[C@H]3C(C)(C)O)c2cc1OC
Outline: as §1

gefitinib = compound: COc1cc2ncnc(Nc3ccc(F)c(Cl)c3)c2cc1OCCCN1CCOCC1 [gefitinib]
Outline: as §1

[3] = compound: COc1cccc2cc(-c3nc([C@H]4CC[C@H](C(=O)O)CC4)n4ncnc(N)c34)[nH]c12
Outline: as §1

lapatinib = compound: CS(=O)(=O)CCNCc1ccc(-c2ccc3ncnc(Nc4ccc(OCc5cccc(F)c5)c(Cl)c4)c3c2)o1 [lapatinib]
Outline: as §1

pictilisib = compound: CS(=O)(=O)N1CCN(Cc2cc3nc(-c4cccc5[nH]ncc45)nc(N4CCOCC4)c3s2)CC1 [pictilisib]
Outline: as §1

Target	log2 fold change [1]	log2 fold change (filanesib)	log2 fold change (zotarolimus)	log2 fold change (idasanutlin)	log2 fold change (alisertib)	log2 fold change [2]	log2 fold change (gefitinib)	log2 fold change [3]	log2 fold change (lapatinib)	log2 fold change (pictilisib)
CHMP4B (UniProt Q9H444)	inactive: -0.101	inactive: -0.106	inactive: -0.015	inactive: 0.034	inactive: -0.036	inactive: 0.044	inactive: -0.005	inactive: 0.08	inactive: -0.09	inactive: -0.094
CHD3 isoform 3 (UniProt Q12873)	inactive: -0.137	inactive: 0.082	inactive: 0.174	inactive: 0.097	inactive: -0.001	inactive: -0.207	inactive: 0	inactive: -0.051	inactive: -0.016	inactive: -0.024
CHMP4C (UniProt Q96CF2)	inactive: 0.163	inactive: 0.014	inactive: -0.028	inactive: -0.001	inactive: 0.037	inactive: 0.064	inactive: -0.014	inactive: 0.02	inactive: -0.027	inactive: -0.005
CEP83 (UniProt Q9Y592)	inactive: -0.237									
CDKN2AIP (UniProt Q9NXV6)	inactive: 0.059	inactive: 0.024	inactive: -0.029	inactive: -0.033	inactive: -0.091	inactive: -0.007	inactive: 0.038	inactive: 0.054	inactive: 0.042	inactive: -0.025
CFAP20 (UniProt Q9Y6A4)	inactive: -0.042	inactive: 0.172	inactive: -0.01	inactive: 0.056	inactive: -0.062	inactive: -0.134	inactive: -0.014	inactive: 0.003	inactive: 0.036	inactive: -0.095
CDCA2 (UniProt Q69YH5)	inactive: 0.278	inactive: -0.036	inactive: -0.04	inactive: 0.018	inactive: 0.585	inactive: -0.079	inactive: 0.109	inactive: -0.011	inactive: 0.204	inactive: -0.127
CHMP5 (UniProt Q9NZZ3)	inactive: -0.001	inactive: -0.031	inactive: -0.033	inactive: 0.001	inactive: -0.048	inactive: -0.007	inactive: 0.013	inactive: 0.046	inactive: 0.026	inactive: 0.006
CDK7 (UniProt P50613)	inactive: 0.004	inactive: 0.004	inactive: -0.012	inactive: 0.011	inactive: -0.062	inactive: 0.059	inactive: -0.023	inactive: 0.06	inactive: 0.003	inactive: -0.024
CHMP1A (UniProt Q9HD42)	inactive: 0.026	inactive: -0.043	inactive: -0.013	inactive: 0.033	inactive: -0.053	inactive: 0.023	inactive: -0.013	inactive: 0.011	inactive: -0.017	inactive: -0.016
CDKN1B (UniProt P46527)	inactive: 0.085	inactive: -0.02	inactive: -0.007	inactive: -0.033	inactive: 0.068	inactive: 0.104	inactive: 0.124	inactive: -0.076	inactive: -0.03	inactive: -0.02
CGGBP1 (UniProt Q9UFW8)	inactive: -0.041	inactive: -0.02	inactive: -0.009	inactive: 0.007	inactive: -0.076	inactive: 0.044	inactive: -0.016	inactive: -0.061	inactive: 0.081	inactive: -0.062
CDCA5 (UniProt Q96FF9)	inactive: -0.196	inactive: 0.068	inactive: 0.051	inactive: 0.117	inactive: -0.035	inactive: 0.07	inactive: -0.009	inactive: 0.066	inactive: -0.045	inactive: 0.073
CHKB (UniProt Q9Y259)	inactive: 0.129	inactive: 0.116	inactive: -0.04	inactive: 0.037	inactive: -0.072	inactive: 0.022	inactive: -0.03	inactive: 0.066	inactive: -0.007	inactive: 0.082
CDC42BPA isoform 6 (UniProt Q5VT25)	inactive: -0.005	inactive: 0.009	inactive: 0.081	inactive: 0.004	inactive: -0.04	active: -1.1	inactive: -0.096	inactive: -0.027	inactive: 0.106	inactive: 0.118
CDCP1 (UniProt Q9H5V8)	inactive: -0.01	inactive: 0.024	inactive: -0.027	inactive: -0.005	inactive: -0.032	inactive: 0.076	inactive: 0.03	inactive: 0.06	inactive: -0.035	inactive: 0.084
CHAMP1 (UniProt Q96JM3)	inactive: -0.001	inactive: -0.008	inactive: 0.07	inactive: 0.005	inactive: 0.006	inactive: 0.025	inactive: 0.029	inactive: 0.022	inactive: -0.065	inactive: 0.107
CDK5RAP1 (UniProt Q96SZ6)	active: -0.395	inactive: -0.049	inactive: 0.066	inactive: -0.076	inactive: -0.057	inactive: 0.131	inactive: -0.074	inactive: 0.055	inactive: -0.034	inactive: 0.075
CEP76 (UniProt Q8TAP6)	inactive: -0.04	inactive: 0.048	inactive: -0.027	inactive: -0.022	inactive: -0.029	inactive: 0.039	inactive: 0.02	inactive: 0.087	inactive: -0.074	inactive: -0.015
CES2 isoform 4 (UniProt O00748)	inactive: -0.099	inactive: 0.055	inactive: 0.078	inactive: 0.053	inactive: 0.023	inactive: -0.044	inactive: 0.03	inactive: -0.145	inactive: 0.161	inactive: 0.103
CERT isoform 3 (UniProt Q9Y5P4)	inactive: -0.025	inactive: 0.001	inactive: 0.2	inactive: -0.145	inactive: -0.064	inactive: -0.201	inactive: 0.157	inactive: -0.004	inactive: 0.247	inactive: 0.186
CHD4 isoform 2 (UniProt Q14839)	inactive: 0.04	inactive: 0.079	inactive: 0.019	inactive: 0.045	inactive: 0	inactive: -0.099	inactive: 0.055	inactive: -0.097	inactive: 0.013	inactive: -0.028
CDV3 (UniProt Q9UKY7)	inactive: 0.176	inactive: -0.071	inactive: -0.014	inactive: -0.015	inactive: -0.065	inactive: 0.022	inactive: -0.009	inactive: 0.065	inactive: 0.004	inactive: -0.011
CHCHD7 isoform 4 (UniProt Q9BUK0)	inactive: -0.009	inactive: 0.028	inactive: -0.024	inactive: 0.017	inactive: 0.03	inactive: -0.009	inactive: -0.14	inactive: 0.043	inactive: -0.208	inactive: 0.102
CDKN2C (UniProt P42773)	inactive: -0.1	inactive: -0.006	inactive: 0.04	inactive: -0.084	inactive: -0.045	inactive: -0.1	inactive: 0.021	inactive: 0.046	inactive: -0.083	inactive: 0.063
CDK12 (UniProt Q9NYV4)	inactive: -0.019	inactive: 0.463	inactive: -0.072	inactive: 0.303	inactive: 0.062	inactive: -0.226	inactive: 0.005	inactive: -0.03	inactive: 0.134	inactive: -0.018
CHCHD6 (UniProt Q9BRQ6)	inactive: -0.024	inactive: -0.1	inactive: -0.171	inactive: -0.022	inactive: 0.138	inactive: 0.09	inactive: -0.078	inactive: -0.028	inactive: -0.162	inactive: 0.031
CHEK2 isoform 9 (UniProt O96017)	inactive: -0.037	inactive: -0.06	inactive: 0.07	inactive: -0.066	inactive: -0.019	inactive: 0.042	inactive: 0.021	inactive: 0.04	inactive: -0.044	inactive: -0.015
CHMP1B (UniProt Q7LBR1)	inactive: -0.034	inactive: -0.047	inactive: -0.005	inactive: -0.086	inactive: -0.034	inactive: 0.009	inactive: -0.005	inactive: 0.025	inactive: -0.033	inactive: 0.062
CDK5RAP3 isoform 4 (UniProt Q96JB5)	inactive: -0.008	inactive: -0.085	inactive: 0.026	inactive: -0.091	inactive: -0.001	inactive: 0.075	inactive: 0.024	inactive: 0.004	inactive: -0.034	inactive: -0.015

No new results follow: an excerpt of the list.
Target	log2 fold change [1]	log2 fold change (filanesib)	log2 fold change (zotarolimus)	log2 fold change (idasanutlin)	log2 fold change (alisertib)	log2 fold change [2]	log2 fold change (gefitinib)	log2 fold change [3]	log2 fold change (lapatinib)	log2 fold change (pictilisib)
CHMP4B (UniProt Q9H444)	inactive: -0.101	inactive: -0.106	inactive: -0.015	inactive: 0.034	inactive: -0.036	inactive: 0.044	inactive: -0.005	inactive: 0.08	inactive: -0.09	inactive: -0.094
CHD3 isoform 3 (UniProt Q12873)	inactive: -0.137	inactive: 0.082	inactive: 0.174	inactive: 0.097	inactive: -0.001	inactive: -0.207	inactive: 0	inactive: -0.051	inactive: -0.016	inactive: -0.024
